# Assay results published in doi:10.1101/2021.08.18.456771.
# Amino acid sequences for entries named in this document (tags omitted).
# UniProt Q01196: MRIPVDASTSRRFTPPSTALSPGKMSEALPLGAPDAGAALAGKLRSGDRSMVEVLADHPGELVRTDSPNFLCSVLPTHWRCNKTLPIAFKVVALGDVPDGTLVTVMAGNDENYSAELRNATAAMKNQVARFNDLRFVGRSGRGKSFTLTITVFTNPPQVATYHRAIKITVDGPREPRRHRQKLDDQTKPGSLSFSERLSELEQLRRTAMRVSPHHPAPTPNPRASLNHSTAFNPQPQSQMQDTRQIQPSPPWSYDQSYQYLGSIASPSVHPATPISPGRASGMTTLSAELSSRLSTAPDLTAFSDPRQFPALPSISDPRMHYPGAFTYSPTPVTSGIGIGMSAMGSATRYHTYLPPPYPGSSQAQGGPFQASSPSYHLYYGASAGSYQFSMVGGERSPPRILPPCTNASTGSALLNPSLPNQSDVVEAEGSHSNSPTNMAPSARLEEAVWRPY
# UniProt P28347: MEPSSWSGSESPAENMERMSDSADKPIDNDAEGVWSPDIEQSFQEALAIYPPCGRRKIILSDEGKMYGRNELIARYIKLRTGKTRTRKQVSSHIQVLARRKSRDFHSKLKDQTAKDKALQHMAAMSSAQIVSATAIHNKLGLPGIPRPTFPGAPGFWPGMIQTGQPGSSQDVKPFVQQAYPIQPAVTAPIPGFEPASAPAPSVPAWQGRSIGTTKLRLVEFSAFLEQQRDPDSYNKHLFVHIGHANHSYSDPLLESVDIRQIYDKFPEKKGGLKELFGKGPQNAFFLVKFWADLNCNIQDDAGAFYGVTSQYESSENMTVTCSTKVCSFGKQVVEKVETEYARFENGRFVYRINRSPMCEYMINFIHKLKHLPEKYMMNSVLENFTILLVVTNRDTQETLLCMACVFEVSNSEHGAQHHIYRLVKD
# Results are given in words; binding and its absence hold for the method and conditions named. Binding seen in cells or lysates may run through a third protein. Some binding calls cover weakened binding; strength is not graded here. Sequences can lack the tags named with a protein.
# B1: FLAG-VGLL3 (protein, UniProt A8MV65-1 1-326)
# chain: MSCAEVMYHPQPYGASQYLPNPMAATTCPTAYYQPAPQPGQQKKLAVFSKMQDSLEVTLPSKQEEEDEEEEEEEKDQPAEMEYLNSRCVLFTYFQGDIGSVVDEHFSRALGQAITLHPESAISKSKMGLTPLWRDSSALSSQRNSFPTSFWTSSYQPPPAPCLGGVHPDFQVTGPPGTFSAADPSPWPGHNLHQTGPAPPPAVSESWPYPLTSQVSPSYSHMHDVYMRHHHPHAHMHHRHRHHHHHHHPPAGSALDPSYGPLLMPSVHAARIPAPQCDITKTEPTTVTSATSAWAGAFHGTVDIVPSVGFDTGLQHQDKSKESPWY
# How the values were obtained:
# Myc-RUNX1 = Myc-RUNX1 (UniProt Q01196); experiment: co-IP
# Myc-TEAD1 = Myc-TEAD1 (UniProt P28347); experiment: co-IP
binder,measurement,setting,value
B1,binding,Myc-RUNX1,binds
same,binding,Myc-TEAD1,binds
